{
  "sequences": {"note": "The chains behind the UniProt entries cited, without tags or fusion partners. Where a name states a change or a piece, a line headed by the entry shows the natural chain unless it says otherwise.", "UniProt P30153, whole entry": "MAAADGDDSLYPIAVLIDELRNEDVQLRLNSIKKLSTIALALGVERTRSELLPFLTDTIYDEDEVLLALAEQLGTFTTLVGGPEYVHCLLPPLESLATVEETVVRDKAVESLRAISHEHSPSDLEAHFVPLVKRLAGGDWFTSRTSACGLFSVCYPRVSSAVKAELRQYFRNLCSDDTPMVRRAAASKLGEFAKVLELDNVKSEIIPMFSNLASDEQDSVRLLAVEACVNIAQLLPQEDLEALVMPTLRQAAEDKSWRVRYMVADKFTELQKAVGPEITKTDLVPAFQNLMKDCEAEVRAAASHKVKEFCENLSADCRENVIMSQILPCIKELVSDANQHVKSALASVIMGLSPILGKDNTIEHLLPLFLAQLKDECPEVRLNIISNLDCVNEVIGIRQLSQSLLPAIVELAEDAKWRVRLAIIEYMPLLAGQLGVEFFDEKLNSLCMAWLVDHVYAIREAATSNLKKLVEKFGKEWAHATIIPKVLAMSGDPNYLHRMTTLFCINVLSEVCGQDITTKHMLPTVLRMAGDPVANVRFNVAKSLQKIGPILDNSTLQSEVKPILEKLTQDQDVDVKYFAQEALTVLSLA", "UniProt P29144": "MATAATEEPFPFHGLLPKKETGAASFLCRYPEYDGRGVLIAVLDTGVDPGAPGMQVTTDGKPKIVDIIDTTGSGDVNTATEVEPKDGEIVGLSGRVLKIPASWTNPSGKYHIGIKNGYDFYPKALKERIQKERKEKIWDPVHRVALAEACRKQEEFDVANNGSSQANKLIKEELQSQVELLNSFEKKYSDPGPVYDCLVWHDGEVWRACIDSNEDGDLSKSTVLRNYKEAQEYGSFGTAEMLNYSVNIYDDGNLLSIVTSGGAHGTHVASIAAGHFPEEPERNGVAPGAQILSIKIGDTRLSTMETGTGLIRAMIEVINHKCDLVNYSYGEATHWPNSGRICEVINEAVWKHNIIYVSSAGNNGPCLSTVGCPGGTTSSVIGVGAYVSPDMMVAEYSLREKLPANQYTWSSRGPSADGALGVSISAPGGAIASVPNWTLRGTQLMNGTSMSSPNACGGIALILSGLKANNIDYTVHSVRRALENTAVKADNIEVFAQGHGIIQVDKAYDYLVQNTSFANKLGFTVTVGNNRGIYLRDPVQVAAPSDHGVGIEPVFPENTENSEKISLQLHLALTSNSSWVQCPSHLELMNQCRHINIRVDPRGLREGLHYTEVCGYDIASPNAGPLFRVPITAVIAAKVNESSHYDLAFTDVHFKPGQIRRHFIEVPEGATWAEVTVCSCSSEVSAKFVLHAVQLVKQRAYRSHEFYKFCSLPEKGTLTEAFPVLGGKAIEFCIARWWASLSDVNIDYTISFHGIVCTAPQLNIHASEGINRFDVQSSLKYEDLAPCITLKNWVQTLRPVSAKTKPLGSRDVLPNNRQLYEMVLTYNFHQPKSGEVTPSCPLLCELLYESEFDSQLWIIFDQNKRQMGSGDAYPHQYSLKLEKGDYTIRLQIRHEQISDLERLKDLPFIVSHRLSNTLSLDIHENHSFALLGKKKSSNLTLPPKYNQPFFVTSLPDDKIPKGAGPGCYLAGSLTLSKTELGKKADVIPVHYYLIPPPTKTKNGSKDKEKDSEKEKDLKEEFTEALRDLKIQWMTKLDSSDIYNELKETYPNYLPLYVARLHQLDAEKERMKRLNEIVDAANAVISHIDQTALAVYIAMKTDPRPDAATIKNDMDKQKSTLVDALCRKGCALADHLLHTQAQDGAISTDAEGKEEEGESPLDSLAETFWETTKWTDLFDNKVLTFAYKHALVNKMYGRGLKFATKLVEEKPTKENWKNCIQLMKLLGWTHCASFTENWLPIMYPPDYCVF", "UniProt P46020": "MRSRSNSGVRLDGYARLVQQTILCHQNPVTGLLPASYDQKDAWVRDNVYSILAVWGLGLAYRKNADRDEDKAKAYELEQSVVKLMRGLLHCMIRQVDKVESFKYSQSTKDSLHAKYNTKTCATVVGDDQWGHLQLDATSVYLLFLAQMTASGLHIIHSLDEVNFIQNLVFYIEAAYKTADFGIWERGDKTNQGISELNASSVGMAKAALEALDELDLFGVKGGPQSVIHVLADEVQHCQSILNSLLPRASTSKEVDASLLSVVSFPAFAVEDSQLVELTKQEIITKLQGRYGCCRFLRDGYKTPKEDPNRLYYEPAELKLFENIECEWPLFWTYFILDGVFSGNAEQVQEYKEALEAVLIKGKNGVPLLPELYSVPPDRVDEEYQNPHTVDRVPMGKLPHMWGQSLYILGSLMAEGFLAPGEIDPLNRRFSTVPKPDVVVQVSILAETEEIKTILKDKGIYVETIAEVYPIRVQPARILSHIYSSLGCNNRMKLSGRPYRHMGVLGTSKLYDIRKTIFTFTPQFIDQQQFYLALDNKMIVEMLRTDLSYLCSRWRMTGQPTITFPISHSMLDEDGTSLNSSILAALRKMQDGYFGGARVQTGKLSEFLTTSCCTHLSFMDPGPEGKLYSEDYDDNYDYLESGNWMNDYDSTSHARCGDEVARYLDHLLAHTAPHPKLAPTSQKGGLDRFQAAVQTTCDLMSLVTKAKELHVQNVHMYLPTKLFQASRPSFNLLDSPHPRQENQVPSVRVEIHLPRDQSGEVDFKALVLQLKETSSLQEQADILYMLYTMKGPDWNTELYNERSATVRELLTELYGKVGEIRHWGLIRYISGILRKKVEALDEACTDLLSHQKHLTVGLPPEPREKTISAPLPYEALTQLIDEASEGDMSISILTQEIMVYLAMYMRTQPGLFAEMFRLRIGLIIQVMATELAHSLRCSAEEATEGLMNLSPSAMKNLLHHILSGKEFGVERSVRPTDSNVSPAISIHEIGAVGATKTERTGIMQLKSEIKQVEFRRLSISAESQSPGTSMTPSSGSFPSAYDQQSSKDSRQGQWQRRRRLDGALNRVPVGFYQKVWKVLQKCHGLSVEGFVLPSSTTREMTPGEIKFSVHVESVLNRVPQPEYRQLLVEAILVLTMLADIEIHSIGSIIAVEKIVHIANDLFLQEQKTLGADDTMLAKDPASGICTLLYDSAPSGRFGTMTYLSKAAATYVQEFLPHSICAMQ", "UniProt P35638, whole entry": "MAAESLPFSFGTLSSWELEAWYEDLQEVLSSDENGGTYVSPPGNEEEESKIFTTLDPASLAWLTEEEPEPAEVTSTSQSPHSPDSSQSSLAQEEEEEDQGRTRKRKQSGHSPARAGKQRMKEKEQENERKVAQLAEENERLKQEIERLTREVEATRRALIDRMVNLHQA", "UniProt P32121, whole entry": "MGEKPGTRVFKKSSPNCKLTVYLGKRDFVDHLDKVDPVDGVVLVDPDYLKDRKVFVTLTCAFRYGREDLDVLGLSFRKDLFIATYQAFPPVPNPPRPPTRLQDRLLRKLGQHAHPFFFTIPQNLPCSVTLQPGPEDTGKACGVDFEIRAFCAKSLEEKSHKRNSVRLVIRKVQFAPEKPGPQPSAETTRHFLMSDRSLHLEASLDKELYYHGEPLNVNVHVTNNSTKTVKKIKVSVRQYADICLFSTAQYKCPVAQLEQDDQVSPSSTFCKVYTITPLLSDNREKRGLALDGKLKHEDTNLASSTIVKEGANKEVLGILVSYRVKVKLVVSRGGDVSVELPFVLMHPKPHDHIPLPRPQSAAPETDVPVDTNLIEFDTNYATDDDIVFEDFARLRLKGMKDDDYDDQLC", "UniProt P41440": "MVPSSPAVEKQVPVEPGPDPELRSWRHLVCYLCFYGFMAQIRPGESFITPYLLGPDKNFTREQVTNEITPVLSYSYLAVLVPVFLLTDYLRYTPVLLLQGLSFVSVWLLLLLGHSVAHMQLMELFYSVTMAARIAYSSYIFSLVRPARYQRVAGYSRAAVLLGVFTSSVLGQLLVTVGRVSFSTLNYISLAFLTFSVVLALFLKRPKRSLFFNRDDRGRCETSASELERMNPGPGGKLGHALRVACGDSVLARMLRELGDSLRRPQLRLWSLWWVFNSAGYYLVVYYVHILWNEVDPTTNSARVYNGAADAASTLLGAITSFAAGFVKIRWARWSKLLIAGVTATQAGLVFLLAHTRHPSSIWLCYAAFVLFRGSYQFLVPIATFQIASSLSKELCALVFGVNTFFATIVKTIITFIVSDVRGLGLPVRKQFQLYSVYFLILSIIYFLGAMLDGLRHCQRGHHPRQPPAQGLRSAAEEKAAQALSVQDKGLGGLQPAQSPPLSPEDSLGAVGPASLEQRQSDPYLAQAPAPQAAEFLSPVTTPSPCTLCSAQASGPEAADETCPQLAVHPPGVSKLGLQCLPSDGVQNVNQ", "UniProt P37837": "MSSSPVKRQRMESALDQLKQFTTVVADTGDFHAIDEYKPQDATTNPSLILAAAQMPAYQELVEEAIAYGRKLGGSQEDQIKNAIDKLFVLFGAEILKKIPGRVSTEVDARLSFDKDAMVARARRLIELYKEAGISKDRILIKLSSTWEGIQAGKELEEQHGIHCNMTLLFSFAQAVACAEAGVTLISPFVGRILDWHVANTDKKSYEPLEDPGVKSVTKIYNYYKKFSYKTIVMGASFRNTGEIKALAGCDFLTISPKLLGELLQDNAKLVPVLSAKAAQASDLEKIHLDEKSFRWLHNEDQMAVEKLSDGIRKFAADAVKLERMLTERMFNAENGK"},
  "source": "the supplement of paper PMC12819154",
  "about": "“High-throughput peptide-centric local stability assay extends protein–ligand identification to membrane proteins, tissues and bacteria” (Nature Structural & Molecular Biology, 2025)",
  "note": "Some of the results follow. Most entries show no effect beyond the scatter of the controls.",
  "data": [
    {"compound": "Cc1nc(Nc2ncc(C(=O)Nc3c(C)cccc3Cl)s2)cc(N2CCN(CCO)CC2)n1 [dasatinib]", "experiment": "log2 fold change of tryptic peptide abundance, ligand vs vehicle (limited proteolysis) (log2 ratio); higher = more trypsin-susceptible (destabilized)", "settings": "ligand concentration: 5 uM; sample: K562 cleared lysate", "values": [
      {"target": "PPP2R1A (peptide sequence: VLAMSGDPNYLHR, peptide start residue: 486) (UniProt P30153)", "log2 fold change": -0.155},
      {"target": "TPP2 (peptide sequence: WTDLFDNK, peptide start residue: 1173) (UniProt P29144)", "log2 fold change": -0.261},
      {"target": "PHKA1 (peptide sequence: AKELHVQNVHMYLPTK, peptide start residue: 706) (UniProt P46020)", "log2 fold change": 0.686},
      {"target": "RPS19 (peptide sequence: DLDRIAGQVAAANKK, peptide start residue: 130) (UniProt P39019)", "log2 fold change": -1.03},
      {"target": "DDIT3 (peptide sequence: MKEKEQENER, peptide start residue: 120) (UniProt P35638)", "log2 fold change": 0.213},
      {"target": "ARRB2 (peptide sequence: LKHEDTNLASSTIVK, peptide start residue: 294) (UniProt P32121)", "log2 fold change": -0.218},
      {"target": "SLC19A1 (peptide sequence: AAQALSVQDK, peptide start residue: 480) (UniProt P41440)", "log2 fold change": -0.0872},
      {"target": "TALDO1 (peptide sequence: SYEPLEDPGVK, peptide start residue: 205) (UniProt P37837)", "log2 fold change": 0.11}
    ]}
  ]
}
